Data from PubChem BioAssay AID2417 (National Center for Advancing Translational Sciences (NCATS), 2010).
In all, about 140,000 compounds went through this assay and about 4,300 (3.1%) were called active. Inconclusive results, whose numbers are uncertain, are shown with a selection of clear calls.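 The calls were made as follows: active = readout at or below -70, meaning at least 70% loss of cells showing the perinucleolar compartment, a nuclear body marking cancer cells; inconclusive = readout between -30 and a set limit; inactive = the rest.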

assay: High Content Assay for Compounds that inhibit the Assembly of the Perinucleolar Compartment; conditions: PC3M PTB-GFP, PNC prevalence imaging, 16 h; at 10 µM; hits give low values;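 also: plate controls were DMSO wells for no effect and camptothecin positive control wells for full effect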
Outline: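 PC3M cells stably expressing PTB-GFP, 750–1000 cells/well, treated 16 h at 37 °C with compound (23 nl of library stock), in duplicate. After paraformaldehyde fixation and Hoechst stain, imaged at 20x; PNC prevalence scored by image analysis.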

| Structure (SMILES) | activity change (PNC), negative = inhibition |
| --- | --- |
| CCN1CCN(C(=O)C2c3cc(OC)c(OC)cc3C(=O)N(C)C2c2ccc(SC)cc2)CC1 (configuration not stated) | active: -100% |
| CC1=C(C(=O)Nc2cc(C)ccn2)C(c2ccc(C)cc2)C2=C(CCCC2=O)N1 (configuration not stated) | inconclusive: -31.3% |
| CC(C)CC(=O)Nc1ccccc1N1CCCC1 | inconclusive: -58.4% |
| COc1ccc(C(=O)CSc2nnc(NC(=O)C3CC(=O)N(c4cccc(OC)c4)C3)s2)cc1 (configuration not stated) | inconclusive: -58.6% |
| Cc1ccc(C(=O)N/N=C\c2c(C)nn(-c3ccccc3)c2Cl)cn1 | inconclusive: -77.7% |
| O=[N+]([O-])c1cnc(N2CCCCC2)c([N+](=O)[O-])c1 | inconclusive: -36.2% |
| Cc1ccc(C2CC(=O)C=C(Nc3ccc(Cl)cc3)C2)cc1 (configuration not stated) | inactive: 28.7% |
| O=C(Cn1cc(C(=O)COc2ccccc2)c2ccccc21)NCc1ccco1 | inconclusive: -63.5% |
| COc1cccc(-c2nc(S(=O)(=O)c3ccccc3)c(N3CCOCC3)o2)c1 | inconclusive: -42% |
| COC(=O)c1onc(-c2ccccc2)c1C(=O)OC | inactive: 6.54% |
| O=c1[nH]c2ccccc2n1CCCSCCCn1c(=O)[nH]c2ccccc21 | inconclusive: -43.1% |
| CN(C)S(=O)(=O)c1ccc(C(=O)N2CCC(c3nc4ccccc4o3)CC2)cc1 | inactive: 32.7% |
| CCCn1c(C)cc(-c2csc(N)n2)c1C | inactive: -2.15% |
| CCOC(=O)N1CCN(c2c(NCc3ccc(Cl)cc3)c(=O)c2=O)CC1 | inconclusive: -49.5% |
| COc1ccccc1CNC(=O)c1cnc2ccccn2c1=O | inconclusive: -37.4% |
| CCOC(Cn1c(SCc2cc(C(C)=O)ccc2OC)nc2ccccc2c1=O)OCC | inactive: -8.64% |
| CC1CC(C)CN(CCCNC(=O)CCNC(=O)Cn2ccc3ccccc3c2=O)C1 (configuration not stated) | inactive: -9.1% |
| O=c1[nH]c(C(Cl)Cl)nc2sc3c(c12)CCN(Cc1ccccc1)C3 | inconclusive: -59.9% |
| N#Cc1c(N)n(CCOC(=O)c2cccc(Br)c2)c2nc3ccccc3nc12 | inconclusive: -75.2% |
| CC(C)(C)c1nc2ccccc2c2nnc(SCC(=O)NCc3ccco3)n12 | inactive: -18.6% |
| CC(C)OCC(O)Cn1c(N2CCCC2)nc2c1c(=O)[nH]c(=O)n2C (configuration not stated) | inconclusive: -50.5% |
| CCn1c(SCC(=O)N2CCCc3ccccc32)nnc1-c1ccco1 | inactive: -9.47% |

3 entries from above, arranged by molecular weight, low to high.

| Structure (SMILES) | activity change (PNC), negative = inhibition |
| --- | --- |
| CCOC(=O)N1CCN(c2c(NCc3ccc(Cl)cc3)c(=O)c2=O)CC1 | inconclusive: -49.5% |
| O=c1[nH]c(C(Cl)Cl)nc2sc3c(c12)CCN(Cc1ccccc1)C3 | inconclusive: -59.9% |
| CCOC(Cn1c(SCc2cc(C(C)=O)ccc2OC)nc2ccccc2c1=O)OCC | inactive: -8.64% |

The listing continues:

| Structure (SMILES) | activity change (PNC), negative = inhibition |
| --- | --- |
| Cc1ccc(N2C(=O)N(Cc3ccccc3C)c3ccccc3S2(=O)=O)cc1 | inactive: 10% |
| FC(F)(F)c1ccc(Oc2ccc3ccccc3c2Br)nc1 | inconclusive: -64% |
| CCN(CC)c1ccc(/C=N/n2nnnc2N)c(O)c1 | active: -120% |
| COc1ccc(CNc2cc(C)nc3ncnn23)c(OC)c1 | inconclusive: -41.4% |
| Cc1ccc(-n2nc3c(=S)[nH]nc(C)c3c2C)cc1 | inactive: -4.2% |
| CCOc1ccc(S(=O)(=O)NCc2ccncc2)cc1 | inconclusive: -74.9% |
| CCOC(=O)c1c(C)[nH]c(C(=O)Cn2nnc(-c3ccccc3)n2)c1C | inconclusive: -34.1% |
| N#Cc1c2c(c[nH]c1=O)CCN2Cc1ccccc1 | inactive: 7.42% |
| O=C(NCc1ccco1)c1ccc(S(=O)(=O)c2cccc(S(=O)(=O)N3CCOCC3)c2)cc1 | inconclusive: -50.4% |
| O=C(NCCC1=CCCCC1)C1CCN(S(=O)(=O)c2cccs2)CC1 | inconclusive: -43.5% |
| CC(=O)CCc1c[nH]c2c(C(=O)O)cccc12 | inactive: 47.3% |
| O=C(NCC(=O)N(Cc1cccs1)C(C(=O)NC1CCCC1)c1ccncc1)c1ccco1 (configuration not stated) | inconclusive: -68.7% |
| O=C1N(Cc2ccc(F)cc2Cl)c2ccccc2C12OCCCO2 | inconclusive: -46.8% |
| Cn1cc(CN2CCc3ccccc3C2)c2ccccc21 | inactive: -16.9% |
| Cc1c(NC(=O)c2cc3nc(-c4ccc(Cl)cc4)cc(C(F)(F)F)n3n2)c(=O)n(-c2ccccc2)n1C | inconclusive: -57.5% |
| COc1ccccc1NC(=O)C1=C(C)NC(SCC(=O)c2ccc(C)cc2)=C(C#N)C1c1ccco1 (configuration not stated) | inactive: -21.7% |
| C=CCn1c(SCc2ccccc2)nc2scc(-c3ccc(C)o3)c2c1=O | inactive: 82% |
| Cc1cc2c3c(c1C)C1(C(=O)N3C(C)(C)CC2C)C(C#N)=C(N)Oc2cc(O)ccc21 (configuration not stated) | inconclusive: -69.1% |
| CC(=O)N(c1ccc(Br)cc1)C1C=CS(=O)(=O)C1 (configuration not stated) | inconclusive: -48.2% |
| N#Cc1ccccc1CSc1ccc(-c2nc3ccccc3[nH]2)cn1 | inconclusive: -59.8% |
| O=C(NCc1ccccc1Cl)c1ccc2c(=O)n(CCCN3CCCC3=O)c(=S)[nH]c2c1 | inactive: 28.8% |
| O=C(O)CN1CCN(Cc2ccc(F)cc2Cl)C1=O | inactive: -14.1% |

| Structure (SMILES) | activity change (PNC), negative = inhibition |
| --- | --- |
| CCOC(=O)c1sc(SCC(=O)Nc2ccc(N(C)C)cc2)nc1N | inconclusive: -49.4% |
| CCc1nc(SCc2ccc(F)cc2)[nH]c(=O)c1C#N | inconclusive: -43.7% |
| Cc1ccc(C(c2c(O)nc3n(c2=O)CCS3)c2c(O)nc3n(c2=O)CCS3)cc1 | active: -80.7% |
| COc1ccc(-n2c(C)cc(/C=C3/SC(=O)N(CC(=O)N4CCOCC4)C3=O)c2C)cc1 | inconclusive: -62.3% |
| CCC(C)(C)n1nnnc1CN1CCN(c2nc3cc(OC)ccc3cc2C#N)CC1 | inactive: -17.6% |
| C=C(C)c1cccc(C(C)(C)NC(=O)Nc2ccc(Cl)cn2)c1 | inconclusive: -40.1% |
| COc1ccc(C(=O)OCn2nnc3ccccc3c2=O)cc1OC | inconclusive: -67.9% |
| CN1CCN(NS(=O)(=O)c2ccc(Cl)s2)CC1 | inactive: 35.9% |
| CCN1/C(=C2\C(=O)N(C)C(=S)N2C)C=Cc2cc(OC)ccc21 | inactive: -14% |
| COc1cccc(NC(=O)CSc2nnc(Cc3cccs3)n2-c2ccc(C)cc2)c1 | inactive: -1.89% |
| CCC(C)(C)n1nnnc1C(c1ccccc1OC)N1CCSCC1 (configuration not stated) | inconclusive: -76.6% |
| CCN1CCN(c2cc(C)c3cc(NC(=O)c4ccc(Br)o4)ccc3n2)CC1 | inconclusive: -45.3% |
| CCOc1ccc(C(=O)NC(=S)Nc2ccc(NC(=O)C(C)C)cc2)cc1[N+](=O)[O-] | inconclusive: -37.7% |
| CCOC(=O)C1=C(C)Nc2nc(=S)[nH]n2C1c1ccc(Cl)cc1 (configuration not stated) | inconclusive: -37.6% |
| CCOC(=O)c1ccc(NC(=O)COC(=O)Cc2csc(-c3ccccc3)n2)cc1 | inconclusive: -57.3% |
| Cc1ccc(NC(=O)COC(=O)c2ccc(OCc3c(C)noc3C)cc2)cc1S(=O)(=O)N1CCOCC1 | inconclusive: -51.7% |
| COc1ccccc1NC(=S)NC(=O)C1CC1 | inactive: -6.75% |
| COc1ccc(C2=NN3C(C2)c2ccccc2OC32C(=O)N(C)c3ccccc32)cc1 (configuration not stated) | inconclusive: -35.2% |
| C#CCOCCOCCOCCNc1nc(N2CCN(C(=O)[C@H]([C@@H](C)CC)n3cc(CCCN=C(N)N)nn3)CC2)nc(N2CCN(C(=O)[C@H](CCCCN)n3cc(CCC(=O)O)nn3)CC2)n1 | inconclusive: -69.8% |
| O=C(CSc1ncnc2ccccc12)NCc1ccco1 | inactive: -26.2% |
| O=C(Nc1ccccc1)NC1CCN(Cc2nnnn2C2CCCCC2)CC1 | inactive: -14.7% |
| CCOC(=O)C1=C(C)NC(SCC(=O)Nc2nc(C)cs2)=C(C#N)C1c1cccs1 (configuration not stated) | inactive: -20.9% |

| Structure (SMILES) | activity change (PNC), negative = inhibition |
| --- | --- |
| O=C(Oc1ccc(Cl)cc1)c1ccc2nccnc2c1 | inconclusive: -74.1% |
| Cc1ccc(-n2sc3ccccc3c2=O)cc1 | inconclusive: -33.6% |
| O=C(Nc1ccc([N+](=O)[O-])cn1)c1cc(-c2cccc(Cl)c2)nc2ccccc12 | inconclusive: -58.2% |
| CCOc1ccc(OCC)c(NC(=O)CN2CCN(CC)CC2)c1 | inconclusive: -48.8% |
| Cc1ccc(S(=O)(=O)c2c(N)n(/N=C/c3ccco3)c3nc4ccccc4nc23)cc1C | inactive: -16.5% |
| COC(=O)c1[nH]c2cc(OC)ccc2c1NC(=O)c1nonc1C | inconclusive: -47.4% |
| CCCCc1nnc(NC(=O)CSc2nc(=O)cc(N)n2-c2ccccc2)s1 | inconclusive: -44.8% |
| Cc1cc(C(=O)OCC(=O)c2c(N)n(C)c(=O)n(C)c2=O)c(C)o1 | inconclusive: -31.8% |
| CS(=O)(=O)N(CC(=O)N1CCCC1)c1cccc(Cl)c1Cl | inconclusive: -32.7% |
| COc1ccccc1N1CCN(C(=O)CSc2nc3ncnc(N)c3[nH]2)CC1 | inconclusive: -30.1% |
| CCc1cc2c(-n3nc(C)cc3C)ncnc2s1 | inconclusive: -31% |
| Cc1ccc(N2C(N)=C(C#N)C3(C(=O)N(C)c4ccccc43)C3=C2CC(C)(C)CC3=O)cc1Cl (configuration not stated) | inconclusive: -61.5% |
| O=C(NCc1ccccc1)c1cccc(COc2cc(Cl)ccc2Cl)c1 | inconclusive: -47.8% |
| COc1cccc(C2=Nc3cccc4cccc(c34)N2)c1 | inconclusive: -48.5% |
| CON1C(=O)C(=O)N(OC)C(C)(C)C1(C)C | inconclusive: -43.7% |
| Cc1ccc(NC(=O)C2CC=CCC2C(=O)N2CCCCC2)cc1 (configuration not stated) | inactive: -9.13% |
| CCN1C(=O)C(CC(=O)Nc2cccc(C(C)=O)c2)S/C1=N\c1ccccn1 (configuration not stated) | inconclusive: -47.9% |
| NC1=C(c2ccc(F)cc2)C(=O)CS1 | inconclusive: -46.1% |
| CCN1CCN(Cc2c(O)c(Cl)cc3c(C)cc(=O)oc23)CC1 | inconclusive: -45.3% |
| COC(=O)CN(c1c(C)cccc1C)S(C)(=O)=O | active: -86.1% |
| CCN(CC)S(=O)(=O)c1cc(C(=O)O)ccc1Cl | inconclusive: -30.7% |

Reformatted: entries from further up.
Structure (SMILES) | activity change (PNC), negative = inhibition
O=C(Oc1ccc(Cl)cc1)c1ccc2nccnc2c1 | inconclusive: -74.1%
Cc1ccc(-n2sc3ccccc3c2=O)cc1 | inconclusive: -33.6%
O=C(Nc1ccc([N+](=O)[O-])cn1)c1cc(-c2cccc(Cl)c2)nc2ccccc12 | inconclusive: -58.2%
CCOc1ccc(OCC)c(NC(=O)CN2CCN(CC)CC2)c1 | inconclusive: -48.8%
